# Measured values taken from PMC9513234 (Frontiers in Chemistry, 2022).
# Bridges are numbered along the chain shown (N, C = ends). [ ]: non-standard residue; d: D form. NMeR = CN[C@@H](CCCNC(=N)N)C(=O)O; AllylGly = C=CC[C@H](N)C(=O)O; NMeK = CN[C@@H](CCCCN)C(=O)O
# Legend:
# [1] = solid-phase peptide synthesis; settings: whole synthesis; for final HPLC purity: 214 nm; for final HPLC purity / isolated yield: scale of the general procedure 0.1 mmol
# [2] = solid-phase peptide synthesis; settings: whole synthesis, scale 0.2 mmol
# [3] = peptide synthesis; settings: whole synthesis
# [4] = general procedure: Fmoc solid-phase peptide synthesis; HMPB-AM resin; HCTU/DIPEA; settings: whole synthesis, scale 0.1 mmol
Substance,final HPLC purity [1],isolated yield [1],final HPLC purity [3],isolated yield [3],further results
H2N-VDCFLSRPTEkT-CO2H,ca. 99%,26%,–,–,isolated mass ([1]; scale 0.1 mmol): 36.3 mg
CFLSRPTEKTVD-COS-CH2CH2Ala-OH,–,–,–,–,crude mass [2]: 271 mg
CH 3 CH 2 OCO-NH-VDCFLSRPTEKT-CONH 2 (N-ethoxycarbonyl; C-terminal amide),–,–,ca. 96%,43% yield,–
CH 3 CH 2 CH 2 CO-NH-VDCFLSRPTEKT-CONH 2 (N-butanoyl; C-terminal amide),–,–,ca. 98%,44% yield,–
PhCO-NH-VDCFLSRPTEKT-CONH 2,–,–,ca. 99%,37% yield,–
N 3 -VDCFLSRPTEKT-CO2H (N-terminal azide),–,–,ca. 95%,18% yield,–
(CH 3 ) 2 CH 2 CH 2 OCO-NH-VDCFLSRPTEKT-CO2H (N-terminal isopentyloxycarbonyl cap),–,–,ca. 98%,49% yield,–
(CH 3 ) 2 CH 2 CH 2 OCO-NH-VDCFLSRPTEKT-CONH 2,–,–,ca. 98%,49% yield,–
PhCO-NH-VDCFLSRPTEKT-CO2H (N-benzoyl),–,–,ca. 96%,41% yield,–
H2N-VDCFLSRPTEKT-COSCH 2 CH 2 Gly-CO 2 H (C-terminal thioester to Gly),–,–,ca. 97%,–,–
H2N-VDCFLSrPTEKT-CO2H,ca. 97%,16%,–,–,isolated mass ([1]; scale 0.1 mmol): 22.3 mg
H-[AllylGly]VDCFLSRPTE[AllylGly]T-OH (staple 1-12; SMILES CC(C)C[C@@H]1NC(=O)[C@H](Cc2ccccc2)NC(=O)[C@H](CS)NC(=O)[C@H](CC(=O)O)NC(=O)[C@H](C(C)C)NC(=O)[C@@H](N)CC=CC[C@@H](C(=O)N[C@H](C(=O)O)[C@@H](C)O)NC(=O)[C@H](CCC(=O)O)NC(=O)[C@H]([C@@H](C)O)NC(=O)[C@@H]2CCCN2C(=O)[C@H](CCCNC(=N)N)NC(=O)[C@H](CO)NC1=O),ca. 95%,2.4% yield,–,–,isolated mass [1]: 3.47 mg
CH 3 CH 2 OCO-NH-VDCFLSRPTEKT-CO2H (N-ethoxycarbonyl),–,–,ca. 97%,26% yield,–
H-VDCFLS[NMeR]PTEKT-OH (SMILES CC(C)C[C@H](NC(=O)[C@H](Cc1ccccc1)NC(=O)[C@H](CS)NC(=O)[C@H](CC(=O)O)NC(=O)[C@@H](N)C(C)C)C(=O)N[C@@H](CO)C(=O)N(C)[C@@H](CCCNC(=N)N)C(=O)N1CCC[C@H]1C(=O)N[C@H](C(=O)N[C@@H](CCC(=O)O)C(=O)N[C@@H](CCCCN)C(=O)N[C@H](C(=O)O)[C@@H](C)O)[C@@H](C)O),ca. 96%,31%,–,–,isolated mass [1]: 43.2 mg
H-[AllylGly]VDCFLSRPTEKT[AllylGly]-OH (staple 1-14; SMILES CC(C)C[C@@H]1NC(=O)[C@H](Cc2ccccc2)NC(=O)[C@H](CS)NC(=O)[C@H](CC(=O)O)NC(=O)[C@H](C(C)C)NC(=O)[C@@H](N)CC=CC[C@@H](C(=O)O)NC(=O)[C@H]([C@@H](C)O)NC(=O)[C@H](CCCCN)NC(=O)[C@H](CCC(=O)O)NC(=O)[C@H]([C@@H](C)O)NC(=O)[C@@H]2CCCN2C(=O)[C@H](CCCNC(=N)N)NC(=O)[C@H](CO)NC1=O),ca. 95%,1.4%,–,–,isolated mass [4]: 2.26 mg
H-VDCFLSRPTE[NMeK]T-OH (SMILES CC(C)C[C@H](NC(=O)[C@H](Cc1ccccc1)NC(=O)[C@H](CS)NC(=O)[C@H](CC(=O)O)NC(=O)[C@@H](N)C(C)C)C(=O)N[C@@H](CO)C(=O)N[C@@H](CCCNC(=N)N)C(=O)N1CCC[C@H]1C(=O)N[C@H](C(=O)N[C@@H](CCC(=O)O)C(=O)N(C)[C@@H](CCCCN)C(=O)N[C@H](C(=O)O)[C@@H](C)O)[C@@H](C)O),ca. 99%,47%,–,–,isolated mass [1]: 66.2 mg
H2N-VDCFLSRPTEKT-CH 2 OH (C-terminal alcohol),–,–,ca. 97%,2% yield,–
CH 3 CH 2 CH 2 CO-NH-VDCFLSRPTEKT-CO2H (N-terminal butyryl cap),–,–,ca. 98%,44% yield,–
